{
  "sequences": {"note": "Amino acid sequences for entries named in this document (tags omitted). A change or cut given only in a name is not applied to a line headed by its entry.", "UniProt P07355": "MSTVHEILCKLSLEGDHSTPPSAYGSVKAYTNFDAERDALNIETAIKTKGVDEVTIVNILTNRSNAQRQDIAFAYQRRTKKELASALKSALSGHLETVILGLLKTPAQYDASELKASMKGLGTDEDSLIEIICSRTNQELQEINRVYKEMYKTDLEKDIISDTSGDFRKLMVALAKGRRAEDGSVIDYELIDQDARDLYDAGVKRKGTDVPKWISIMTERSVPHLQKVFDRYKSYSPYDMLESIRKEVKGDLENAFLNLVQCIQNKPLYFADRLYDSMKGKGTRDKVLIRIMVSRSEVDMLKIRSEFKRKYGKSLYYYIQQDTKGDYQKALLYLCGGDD", "UniProt P31949": "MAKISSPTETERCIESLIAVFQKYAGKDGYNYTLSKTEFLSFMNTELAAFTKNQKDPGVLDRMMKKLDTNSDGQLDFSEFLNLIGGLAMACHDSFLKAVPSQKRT"},
  "source": "paper PMC10988696",
  "about": "“FLIM‐FRET‐based analysis of S100A11/annexin interactions in living cells” (FEBS Open Bio, 2024)",
  "target": "T1, EGFP-ANXA2 (human, UniProt P07355 1-339)",
  "T1 construct": "human annexin A2 (ANXA2) with the fluorescent protein tag in the altered orientation (EGFP-ANXA2); The cloning of this orientation is not described in the methods; source: U2OS or HEK293T cells, transfected (calcium phosphate), in living cells; not shown: EGFP, N-terminal, kept",
  "test": "FRET or BRET; FLIM-FRET (EGFP donor lifetime, mCherry acceptor) in living HEK293T cells co-transfected with both constructs",
  "note": "Results are given in words; binding and its absence hold for the method and conditions named. Binding seen in cells or lysates may run through a third protein. Binding can be weak; no strength is given.",
  "data": [
    {"substance": "S100A11ΔCa-mCherry (from UniProt P31949)", "values": [
      {"measurement": "binding", "result": "binds weakly"}
    ]}
  ]
}
